Consider 51 substances from patent US10526389B2, “Peptides and combinations of peptides for use in immunotherapy against lung cancer, including NSCLC and other cancers” (Immatics Biotechnologies GmbH, priority 2015, dated 2020).

The data set relates to HLA-A*02-positive lung cancer (NSCLC) samples. Briefly: Relative LC-MS quantitation of HLA-A*02 peptide presentation on tumors vs normal tissues. Further details: species or system human; key to Peptide Presentation (presentation score): very highly over-presented on tumors compared to a panel of normal tissues (+++); highly over-presented on tumors compared to a panel of normal (healthy) tissues (++); over-presented on tumors compared to a panel of normal tissues (+). The following applies: HLA-A*02 peptides; for Additional Entities (additional tumor types showing over-presentation): amendment of Table 9, >5% of measured tumor samples or ratio of geometric means tumor vs normal >3; for Other relevant organs/diseases (additional tumour types on which the peptide was found): over-presented on >5% of measured tumour samples, or presented on >5% with ratio of geometric means tumour vs normal >3; for Peptide Presentation (presentation score): tumors compared to a panel of normal tissues.

On to “20 (LMTKEISSV; listed as Homo sapiens) [compound 20]”, for which the “Additional Entities (additional tumor types showing over-presentation)” value is “OC, Esophageal Cancer, Urinary bladder cancer, Gallbladder Cancer, Bile Duct Cancer” and the “Other relevant organs/diseases (additional tumour types on which the peptide was found)” value (shortened to “Other relevant organs/diseases”) is recorded as “Brain, Liver, Melanoma”. As for “22 (NLINQEIML; listed as Homo sapiens) [compound 22]”, the “Additional Entities (additional tumor types showing over-presentation)” value is reported as “BRCA, Melanoma, Urinary bladder cancer”. In the case of “COL6A3-007 (FLYDVVKSL; listed as Homo sapiens)”, the “Peptide Presentation (presentation score)” value (“Peptide Presentation” below) is on record as “++”. For the substance “TGFBI-001 (ALFVRLLALA; listed as Homo sapiens)”, the “Peptide Presentation” value is listed as “++”. As to “99 (ALFQRPPLI; listed as Homo sapiens) [compound 99]”, the “Additional Entities (additional tumor types showing over-presentation)” value is recorded as “SCLC, CLL, Esophageal Cancer, Urinary bladder cancer, Gallbladder Cancer, Bile Duct Cancer, NHL” and the “Other relevant organs/diseases” value was “Colon, Rectum, Liver, Ovary”.

On to “121 (RLLDSVSRL; listed as Homo sapiens) [compound 121]”, for which the “Other relevant organs/diseases” value is listed as “Kidney, Colon, Rectum, Liver, Pancreas, Ovary”. Same read-out and setting: the result for “135 (AIDGNNHEV; listed as Homo sapiens) [compound 135]” reads “Brain, Liver, Pancreas”. “MXRA5-001 (TLSSIKVEV; listed as Homo sapiens)”: the “Peptide Presentation” value is listed as “+++”. For the substance “14 (LIQDRVAEV; listed as Homo sapiens) [compound 14]”, the “Additional Entities (additional tumor types showing over-presentation)” value is “Esophageal Cancer, Urinary bladder cancer” and the “Other relevant organs/diseases” value is “Kidney”.

For “CDK4-001 (TLWYRAPEV; listed as Homo sapiens)”, the “Peptide Presentation” value is “+”.

For “COL6A3-003 (NLLDLDYEL; listed as Homo sapiens)”, the “Peptide Presentation” value is given as “+++”.

Regarding “136 (ALVDHTPYL; listed as Homo sapiens) [compound 136]”, the “Other relevant organs/diseases” value is “Kidney, Liver, Pancreas”.

Take “TACC3-001 (KLVEFDFLGA; listed as Homo sapiens)”: the “Peptide Presentation” value is recorded as “+”. Consider “102 (SLLSELQHA; listed as Homo sapiens) [compound 102]”, for which the “Additional Entities (additional tumor types showing over-presentation)” value is “SCLC, Melanoma, Uterine Cancer, Gallbladder Cancer, Bile Duct Cancer, NHL” and the “Other relevant organs/diseases” value is reported as “Kidney, Breast, Ovary, Esophagus”. Regarding “TMEM43-001 (KLLSDPNYGV; listed as Homo sapiens)”, the “Peptide Presentation” value is on record as “+”.

Turning to “16 (LIFDLGGGTFDV; listed as Homo sapiens) [compound 16]”, the “Other relevant organs/diseases” value is “Brain, Liver, Prostate, Breast, Melanoma, Ovary”.

On to “139 (SLIEDLILL; listed as Homo sapiens) [compound 139]”, for which the “Other relevant organs/diseases” value is “Kidney, Brain, Colon, Rectum, Liver, Pancreas, Prostate, Melanoma, Ovary, Esophagus”. “VLLPVEVATHYL (listed as Homo sapiens) [SEQ ID No. 142]”: the “Peptide Presentation” value is reported as “+”.

On to “ATP-001 (SLHFLILYV; listed as Homo sapiens)”, for which the “Peptide Presentation” value is reported as “+”. As to “9 (ALSGTLSGV; listed as Homo sapiens) [compound 9]”, the “Additional Entities (additional tumor types showing over-presentation)” value is reported as “CLL, BRCA, Urinary bladder cancer, Uterine Cancer, AML, NHL” and the “Other relevant organs/diseases” value is on record as “Brain, Liver, Leukocytes, Melanoma, Ovary, Esophagus”. Take “98 (VLYPHEPTAV; listed as Homo sapiens) [compound 98]”: the “Additional Entities (additional tumor types showing over-presentation)” value is “SCLC, BRCA, Esophageal Cancer, Urinary bladder cancer, NHL” and the “Other relevant organs/diseases” value is recorded as “Kidney, Brain, Colon, Rectum, Liver, MCC, Melanoma, Ovary”. With “15 (ELDRTPPEV; listed as Homo sapiens) [compound 15]”, the “Additional Entities (additional tumor types showing over-presentation)” value is “SCLC, PC, CLL, Esophageal Cancer, Urinary bladder cancer, Uterine Cancer, Gallbladder Cancer, Bile Duct Cancer, AML, NHL” and the “Other relevant organs/diseases” value is recorded as “Kidney, Brain, Liver, Leukocytes”. Regarding “151 (AVVEFLTSV; listed as Homo sapiens) [compound 151]”, the “Other relevant organs/diseases” value was “Brain, MCC, Esophagus”.

Regarding “18 (ILLTEQINL; listed as Homo sapiens) [compound 18]”, the “Additional Entities (additional tumor types showing over-presentation)” value is “SCLC, Melanoma, Gallbladder Cancer, Bile Duct Cancer” and the “Other relevant organs/diseases” value is reported as “Kidney, Stomach, Liver, Pancreas, Prostate, Breast, Ovary, Esophagus”. As to “ILIDWLVQV (listed as Homo sapiens) [SEQ ID No. 117]”, the “Peptide Presentation” value is given as “++”. For the substance “148 (ALFGALFLA; listed as Homo sapiens) [compound 148]”, the “Other relevant organs/diseases” value is given as “Melanoma, Ovary”. Regarding “ILLTEQINL (listed as Homo sapiens) [SEQ ID No. 18]”, the “Peptide Presentation” value is given as “+”. Still for that read-out and setting: in the case of “ERO-001 (LLLEILHEI; listed as Homo sapiens)” it was “+”. In the case of “103 (KLLSDPNYGV; listed as Homo sapiens) [compound 103]”, the “Additional Entities (additional tumor types showing over-presentation)” value is recorded as “BRCA, Melanoma, Urinary bladder cancer, Gallbladder Cancer, Bile Duct Cancer” and the “Other relevant organs/diseases” value is “Brain, Pancreas”. For “118 (SLHFLILYV; listed as Homo sapiens) [compound 118]”, the “Other relevant organs/diseases” value is reported as “Kidney, Brain, Colon, Rectum, Liver, Melanoma, Ovary”. On the same count and under the same terms, in the case of “127 (ILFPDIIARA; listed as Homo sapiens) [compound 127]” it was “Kidney, Brain, Leukocytes, Esophagus”; in that of “147 (VLFPNLKTV; listed as Homo sapiens) [compound 147]”, “Kidney”. Take “WNT5A-001 (AMSSKFFLV; listed as Homo sapiens)”: the “Peptide Presentation” value is on record as “++”. For the substance “100: peptide found in BUB1B (gene looked up) (KIVDFSYSV; listed as Homo sapiens) [compound 100]”, the “Additional Entities (additional tumor types showing over-presentation)” value was “SCLC, BRCA, Melanoma, Urinary bladder cancer, Uterine Cancer” and the “Other relevant organs/diseases” value is “Brain, Colon, Rectum, MCC, Ovary”. As to “104 (SLVAVELEKV; listed as Homo sapiens) [compound 104]”, the “Other relevant organs/diseases” value is listed as “Brain, Liver, Pancreas, MCC, Ovary, Esophagus”. Same read-out and setting: in the case of “129 (GLIEIISNA; listed as Homo sapiens) [compound 129]” it was “Brain, Colon, Rectum, Liver, Ovary, Esophagus”. For the substance “132 (ALFVRLLALA; listed as Homo sapiens) [compound 132]”, the “Other relevant organs/diseases” value is listed as “Kidney, Brain, Stomach, Colon, Rectum, Liver, Pancreas, Melanoma, Ovary, Esophagus”.

In the case of “101 (LLLEILHEI; listed as Homo sapiens) [compound 101]”, the “Additional Entities (additional tumor types showing over-presentation)” value is reported as “SCLC, CLL, Urinary bladder cancer” and the “Other relevant organs/diseases” value is “Kidney, Liver, Pancreas, Breast, Ovary”.

Take “138 (ALNEEAGRLLL; listed as Homo sapiens) [compound 138]”: the “Other relevant organs/diseases” value is “Kidney, Brain, Stomach, Colon, Rectum, Liver, Pancreas, MCC, Melanoma, Ovary, Esophagus”.

For the substance “COL6A3-010 (KLLPYIVGV; listed as Homo sapiens)”, the “Peptide Presentation” value is recorded as “+++”. On the same count and under the same terms, the result for “ADAM8-001 (KLLTEVHAA; listed as Homo sapiens)” reads “++”. As to “128 (TLSSIKVEV; listed as Homo sapiens) [compound 128]”, the “Other relevant organs/diseases” value is recorded as “Kidney, Stomach, Colon, Rectum, Pancreas, Prostate, Breast, Melanoma, Ovary”.

“137 (FLVDGSWSV; listed as Homo sapiens) [compound 137]”: the “Other relevant organs/diseases” value is “Stomach, Colon, Rectum, Pancreas, Ovary, Esophagus”. Take “125 (RLDDLKMTV; listed as Homo sapiens) [compound 125]”: the “Other relevant organs/diseases” value is listed as “Colon, Rectum, Pancreas, Ovary, Esophagus”. Take “ALTSTLISV (listed as Homo sapiens) [SEQ ID No. 5]”: the “Peptide Presentation” value was “++”. In the case of “17 (TLLQEQGTKTV; listed as Homo sapiens) [compound 17]”, the “Additional Entities (additional tumor types showing over-presentation)” value is recorded as “SCLC, Esophageal Cancer, Urinary bladder cancer”. For the substance “3 (FLYDVVKSL; listed as Homo sapiens) [compound 3]”, the “Additional Entities (additional tumor types showing over-presentation)” value is given as “SCLC, CRC, Gallbladder Cancer, Bile Duct Cancer” and the “Other relevant organs/diseases” value is listed as “Pancreas, Breast”. With “MCM5-001 (ALSGTLSGV; listed as Homo sapiens)”, the “Peptide Presentation” value was “++”. For “126 (KLLTEVHAA; listed as Homo sapiens) [compound 126]”, the “Other relevant organs/diseases” value was “Kidney, Stomach, Colon, Rectum, Liver, Pancreas, Breast, Ovary”.

As to “SNRN P20-001 (GLIEIISNA; listed as Homo sapiens)”, the “Peptide Presentation” value was “+”. As to “RAD54B-001 (SLYKGLLSV; listed as Homo sapiens)”, the “Peptide Presentation” value is listed as “+++”.
